SMILES strings stand for the structures. Residue numbers refer to the chain shown, from its start. This is a selection; strong and weak results do not stand in their true shares. Calls are pooled over several reports, among them a noisy single-well screen. The list shows a part of the results.

Chains of the proteins cited; added tags and fusions are not shown. A line that says so, or that is headed by a name, gives the form on record, which may keep a tag or linker.
OR1E2, as listed by the source: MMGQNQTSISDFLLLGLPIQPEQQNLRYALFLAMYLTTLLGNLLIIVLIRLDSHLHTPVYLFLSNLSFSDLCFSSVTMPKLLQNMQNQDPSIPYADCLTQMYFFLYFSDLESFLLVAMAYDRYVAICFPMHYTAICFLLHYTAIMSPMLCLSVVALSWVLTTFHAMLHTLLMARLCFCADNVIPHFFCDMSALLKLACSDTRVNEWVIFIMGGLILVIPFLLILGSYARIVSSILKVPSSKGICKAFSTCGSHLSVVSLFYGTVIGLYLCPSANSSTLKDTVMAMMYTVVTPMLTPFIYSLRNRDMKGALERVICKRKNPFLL

Conditions in all cases: stereoisomer not certain
In assay [1] the test system is T1, OR1D5.
T1 sequence (whole entry): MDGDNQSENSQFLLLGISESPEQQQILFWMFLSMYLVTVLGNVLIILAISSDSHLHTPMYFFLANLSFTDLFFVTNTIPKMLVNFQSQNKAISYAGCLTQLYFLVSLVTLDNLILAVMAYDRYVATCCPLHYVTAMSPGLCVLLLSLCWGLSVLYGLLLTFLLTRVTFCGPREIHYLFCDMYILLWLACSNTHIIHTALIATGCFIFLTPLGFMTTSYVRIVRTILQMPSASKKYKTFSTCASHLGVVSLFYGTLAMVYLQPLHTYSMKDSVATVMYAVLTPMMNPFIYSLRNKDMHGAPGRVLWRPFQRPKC
A digest of the protocol:
(§1)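 Values were gathered from published papers (main text and supplementary material), with extra details requested from the original authors when needed, and checked for typos and inconsistencies. Each receptor–molecule pair is called responsive (active) if the original authors judged the measured signal statistically different from baseline, and non-responsive (inactive) otherwise. Assay methods varied by source, often transient mammalian cell-line luciferase assays. Recorded details include cell line, G-protein, co-transfected protein and tags.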

Assay [2] concerns T2, OR1FC.
T2 sequence (whole entry): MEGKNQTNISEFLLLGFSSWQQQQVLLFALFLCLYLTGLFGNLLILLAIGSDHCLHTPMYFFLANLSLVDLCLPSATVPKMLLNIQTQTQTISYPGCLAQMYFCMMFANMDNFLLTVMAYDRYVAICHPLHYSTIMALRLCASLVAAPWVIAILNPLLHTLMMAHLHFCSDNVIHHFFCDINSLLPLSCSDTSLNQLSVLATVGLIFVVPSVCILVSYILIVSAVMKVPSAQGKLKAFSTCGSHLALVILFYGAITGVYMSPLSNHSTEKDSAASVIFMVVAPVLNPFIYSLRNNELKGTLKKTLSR
The method in brief:
as §1

Assay [3] has as its target T3, OR1G1 (Homo sapiens) (UniProt P47890).
T3 sequence (whole entry): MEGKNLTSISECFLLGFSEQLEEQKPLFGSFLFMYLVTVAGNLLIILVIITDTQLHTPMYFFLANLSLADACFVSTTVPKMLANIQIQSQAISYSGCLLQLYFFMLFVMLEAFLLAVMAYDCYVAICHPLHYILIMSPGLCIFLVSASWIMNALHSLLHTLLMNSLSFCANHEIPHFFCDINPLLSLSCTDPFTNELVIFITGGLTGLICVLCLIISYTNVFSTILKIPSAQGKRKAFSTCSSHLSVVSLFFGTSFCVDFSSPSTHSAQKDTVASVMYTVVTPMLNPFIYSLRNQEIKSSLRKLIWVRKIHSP
A digest of the protocol: as §1

For assay [4], the target named is T4, OR1J1 (Homo sapiens) (UniProt Q8NGS3).
T4 sequence (whole entry): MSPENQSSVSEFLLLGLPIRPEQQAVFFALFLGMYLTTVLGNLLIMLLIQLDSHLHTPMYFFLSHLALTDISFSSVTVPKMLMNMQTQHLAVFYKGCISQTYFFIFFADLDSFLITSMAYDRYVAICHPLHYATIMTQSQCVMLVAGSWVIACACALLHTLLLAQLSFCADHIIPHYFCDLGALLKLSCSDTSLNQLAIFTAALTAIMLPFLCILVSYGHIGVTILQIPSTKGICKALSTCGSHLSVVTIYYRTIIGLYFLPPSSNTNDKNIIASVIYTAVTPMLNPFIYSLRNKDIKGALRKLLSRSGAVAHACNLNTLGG
A digest of the protocol: as §1

Assay [5] concerns the target T5, OR1D5 (Homo sapiens) (UniProt P58170).
T5 sequence (whole entry): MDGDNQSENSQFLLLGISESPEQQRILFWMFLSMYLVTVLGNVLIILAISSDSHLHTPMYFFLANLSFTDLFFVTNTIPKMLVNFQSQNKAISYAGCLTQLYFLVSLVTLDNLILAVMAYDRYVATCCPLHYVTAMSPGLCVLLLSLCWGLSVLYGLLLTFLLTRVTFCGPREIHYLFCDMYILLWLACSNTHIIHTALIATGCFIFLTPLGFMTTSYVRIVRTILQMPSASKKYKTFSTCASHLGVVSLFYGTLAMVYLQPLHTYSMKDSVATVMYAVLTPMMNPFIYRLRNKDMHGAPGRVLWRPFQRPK
The method in brief: as §1

The test system of assay [6] is T6, OR1E1.
T6 sequence (whole entry): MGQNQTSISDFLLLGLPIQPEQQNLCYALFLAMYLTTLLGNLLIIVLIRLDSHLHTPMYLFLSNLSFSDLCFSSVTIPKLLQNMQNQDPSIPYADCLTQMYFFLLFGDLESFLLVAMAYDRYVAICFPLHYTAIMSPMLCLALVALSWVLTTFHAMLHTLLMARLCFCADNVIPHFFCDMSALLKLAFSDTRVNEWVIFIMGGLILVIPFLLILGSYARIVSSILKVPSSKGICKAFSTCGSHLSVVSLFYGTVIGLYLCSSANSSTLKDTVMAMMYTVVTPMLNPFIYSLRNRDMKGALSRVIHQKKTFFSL
A digest of the protocol: as §1

The test system of assay [7] is T7, OR1E1.
T7 sequence (whole entry): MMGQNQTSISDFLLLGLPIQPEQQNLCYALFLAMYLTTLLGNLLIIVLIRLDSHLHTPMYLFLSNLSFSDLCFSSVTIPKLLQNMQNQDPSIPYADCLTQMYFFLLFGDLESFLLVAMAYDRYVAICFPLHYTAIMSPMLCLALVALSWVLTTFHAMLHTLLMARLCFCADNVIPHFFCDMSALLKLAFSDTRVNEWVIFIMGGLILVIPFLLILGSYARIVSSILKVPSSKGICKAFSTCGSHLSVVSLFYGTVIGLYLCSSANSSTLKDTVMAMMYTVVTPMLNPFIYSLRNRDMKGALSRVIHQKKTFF
A digest of the protocol:
as §1
The source holds these as a separate data set.

The target of assay [8] is T8, OR1E2 (Homo sapiens) (UniProt P47887).
T8 sequence (whole entry): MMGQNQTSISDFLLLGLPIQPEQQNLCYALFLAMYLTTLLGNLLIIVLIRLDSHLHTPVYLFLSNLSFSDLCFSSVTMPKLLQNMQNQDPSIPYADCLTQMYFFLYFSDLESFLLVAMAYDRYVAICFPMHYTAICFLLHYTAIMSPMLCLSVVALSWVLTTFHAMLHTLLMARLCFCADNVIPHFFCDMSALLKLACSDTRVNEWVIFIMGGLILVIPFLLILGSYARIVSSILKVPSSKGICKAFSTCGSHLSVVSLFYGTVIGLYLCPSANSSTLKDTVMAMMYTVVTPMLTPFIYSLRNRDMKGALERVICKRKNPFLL
The method in brief: as §1

Assay [9] concerns T9, OR1E2.
T9 sequence (whole entry): T8 sequence (whole entry) with C27R
A digest of the protocol:
as §1

Assay [10] relates to T10, OR1F1.
T10 sequence (whole entry): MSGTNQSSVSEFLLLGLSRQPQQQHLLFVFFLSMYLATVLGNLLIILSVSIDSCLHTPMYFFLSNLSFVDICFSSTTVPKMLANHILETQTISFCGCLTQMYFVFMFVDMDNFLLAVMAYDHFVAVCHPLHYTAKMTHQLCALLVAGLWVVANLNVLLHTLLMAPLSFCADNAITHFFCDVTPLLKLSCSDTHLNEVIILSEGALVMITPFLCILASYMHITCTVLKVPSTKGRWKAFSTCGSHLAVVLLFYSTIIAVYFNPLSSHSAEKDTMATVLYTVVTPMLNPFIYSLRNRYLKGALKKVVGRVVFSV
The method in brief: as §1

The test system of assay [11] is T11, OR1I1.
T11 sequence (whole entry): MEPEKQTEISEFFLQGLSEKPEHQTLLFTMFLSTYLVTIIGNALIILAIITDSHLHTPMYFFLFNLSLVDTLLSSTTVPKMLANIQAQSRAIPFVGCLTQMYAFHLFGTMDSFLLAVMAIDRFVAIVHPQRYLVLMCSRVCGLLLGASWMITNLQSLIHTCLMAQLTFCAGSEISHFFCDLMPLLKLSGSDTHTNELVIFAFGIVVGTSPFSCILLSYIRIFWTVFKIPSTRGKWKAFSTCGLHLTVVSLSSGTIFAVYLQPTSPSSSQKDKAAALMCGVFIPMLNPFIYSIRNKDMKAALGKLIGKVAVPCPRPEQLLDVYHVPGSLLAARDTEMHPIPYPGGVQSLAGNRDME
A digest of the protocol: as §1

The target of assay [12] is T12, OR1J2 (Homo sapiens) (UniProt Q8NGS2).
T12 sequence (whole entry): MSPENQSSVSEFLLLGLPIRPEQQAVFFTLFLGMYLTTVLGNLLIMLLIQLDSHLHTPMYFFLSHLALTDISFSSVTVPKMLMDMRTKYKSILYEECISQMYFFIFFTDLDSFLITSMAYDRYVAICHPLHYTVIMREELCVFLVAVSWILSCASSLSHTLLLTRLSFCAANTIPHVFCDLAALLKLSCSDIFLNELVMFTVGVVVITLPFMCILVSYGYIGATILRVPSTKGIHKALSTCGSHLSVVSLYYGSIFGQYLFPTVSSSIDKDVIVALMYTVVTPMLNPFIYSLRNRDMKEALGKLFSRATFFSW
A digest of the protocol: as §1

Assay [13] has as its target T13, OR1J4 (Homo sapiens) (UniProt Q8NGS1).
T13 sequence (whole entry): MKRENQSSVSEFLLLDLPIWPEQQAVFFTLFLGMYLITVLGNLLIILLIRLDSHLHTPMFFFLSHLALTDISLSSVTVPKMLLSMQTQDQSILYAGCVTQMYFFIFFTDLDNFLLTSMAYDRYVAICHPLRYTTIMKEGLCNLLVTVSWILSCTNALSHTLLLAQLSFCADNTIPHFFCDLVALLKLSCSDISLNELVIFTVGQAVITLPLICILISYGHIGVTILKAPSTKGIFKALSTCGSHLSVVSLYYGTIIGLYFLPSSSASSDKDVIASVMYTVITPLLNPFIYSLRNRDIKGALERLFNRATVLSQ
A digest of the protocol: as §1

The target of assay [14] is T14, OR1K1 (Homo sapiens) (UniProt Q8NGR3).
T14 sequence (whole entry): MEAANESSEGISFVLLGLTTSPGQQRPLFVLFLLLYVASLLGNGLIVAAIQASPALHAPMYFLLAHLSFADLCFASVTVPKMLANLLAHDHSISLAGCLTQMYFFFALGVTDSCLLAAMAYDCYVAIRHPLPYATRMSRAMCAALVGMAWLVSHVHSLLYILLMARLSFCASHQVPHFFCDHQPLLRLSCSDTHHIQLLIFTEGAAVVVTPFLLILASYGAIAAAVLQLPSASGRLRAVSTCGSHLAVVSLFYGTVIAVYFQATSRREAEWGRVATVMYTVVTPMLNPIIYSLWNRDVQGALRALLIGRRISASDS
The method in brief: as §1

Turning to `CC(C)(O)CCCC1=CCC(C=O)CC1` (stereo not drawn), the “odorant receptor agonist call” value in assay [1], in assay [2] and in assay [4] was “inactive” throughout. Moreover, the “odorant receptor agonist call” value in assay [3] was “active”.
As to `CCCCCCOC(=O)CCC`, the “odorant receptor agonist call” value in assay [5], in [1], in assay [6], in assay [7], in assay [8] and in assay [9] was “inactive” in each case. Moreover, the “odorant receptor agonist call” value in [10], in assay [2], in assay [3], in assay [11], in assay [4] and in assay [12] was “inactive” throughout. Also, the “odorant receptor agonist call” value in [13] and in assay [14] was “inactive” each time.
On to `C=CCc1ccc(OC(C)=O)c(OC)c1`, for which the “odorant receptor agonist call” value in assay [5], in [6], in assay [7], in [8], in assay [9] and in assay [10] was “inactive” each time. For the same compound, the “odorant receptor agonist call” value in [11], in [12], in [13] and in assay [14] was “inactive” in each case. For the same compound, the “odorant receptor agonist call” value in assay [1], in [2] and in [4] was “active” each time.
In the case of `CCCCCCCCC=O`, in assay [3], the “odorant receptor agonist call” value is “active”.
For the compound `COC(=O)c1ccccc1O`, the “odorant receptor agonist call” value in assay [5], in assay [1], in assay [6], in [7], in assay [8] and in assay [9] was “inactive” throughout. Further, the “odorant receptor agonist call” value in assay [10], in assay [2], in [3], in assay [11], in assay [4] and in [12] was “inactive” throughout. The “odorant receptor agonist call” value in assay [13] and in assay [14] was “inactive” in each case.
For `CC(=O)OC1CC2CCC1(C)C2(C)C` (stereo not drawn), the “odorant receptor agonist call” value in assay [5], in [1], in assay [6], in assay [7], in assay [8] and in assay [9] was “inactive” in each case. The “odorant receptor agonist call” value in [10], in [3], in assay [11], in [4], in [12] and in assay [13] was “inactive” throughout. In addition, in assay [14], the “odorant receptor agonist call” value was “inactive”. Further, in assay [2], the “odorant receptor agonist call” value was “active”.
With `CC1=CCC(C(C)(C)O)CC1` (stereo not drawn), the “odorant receptor agonist call” value in assay [5], in [1], in assay [6], in [7], in [8] and in assay [9] was “inactive” throughout. The “odorant receptor agonist call” value in assay [10], in assay [2], in assay [3], in assay [11], in assay [4] and in assay [12] was “inactive” throughout. Moreover, the “odorant receptor agonist call” value in assay [13] and in [14] was “inactive” throughout.
On to `CC(=O)C(C)=O`, for which the “odorant receptor agonist call” value in [5], in assay [1], in assay [6], in assay [7], in assay [8] and in assay [9] was “inactive” in each case. Also, the “odorant receptor agonist call” value in [10], in assay [2], in assay [3], in [11], in assay [4] and in assay [12] was “inactive” throughout. Moreover, the “odorant receptor agonist call” value in assay [13] and in assay [14] was “inactive” in each case.

(Values after the M2OR odorant receptor database.)
